{"sequences": {"note": "Amino acid sequences for entries named in this document (tags omitted). A change or cut given only in a name is not applied to a line headed by its entry.", "UniProt P51683": "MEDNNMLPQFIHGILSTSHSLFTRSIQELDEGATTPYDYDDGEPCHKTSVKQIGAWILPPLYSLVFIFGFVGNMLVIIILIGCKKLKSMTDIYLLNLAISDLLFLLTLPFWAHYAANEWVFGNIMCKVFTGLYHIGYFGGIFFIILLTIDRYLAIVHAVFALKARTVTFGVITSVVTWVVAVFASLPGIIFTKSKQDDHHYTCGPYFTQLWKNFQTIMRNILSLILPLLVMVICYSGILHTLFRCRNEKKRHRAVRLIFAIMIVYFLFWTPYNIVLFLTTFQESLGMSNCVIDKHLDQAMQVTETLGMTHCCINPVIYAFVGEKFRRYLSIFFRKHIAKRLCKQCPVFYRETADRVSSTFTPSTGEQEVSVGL", "UniProt P41597": "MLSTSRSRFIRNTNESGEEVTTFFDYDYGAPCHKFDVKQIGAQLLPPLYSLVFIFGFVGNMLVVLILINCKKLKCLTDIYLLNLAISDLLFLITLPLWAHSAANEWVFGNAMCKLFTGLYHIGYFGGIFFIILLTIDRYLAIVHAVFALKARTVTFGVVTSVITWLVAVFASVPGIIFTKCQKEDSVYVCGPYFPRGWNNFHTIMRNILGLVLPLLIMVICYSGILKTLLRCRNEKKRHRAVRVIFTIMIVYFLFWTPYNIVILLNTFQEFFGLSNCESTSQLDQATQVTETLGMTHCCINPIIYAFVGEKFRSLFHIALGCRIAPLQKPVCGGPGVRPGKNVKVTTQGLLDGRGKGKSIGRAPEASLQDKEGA"}, "source": "patent US12016935B2", "about": "“Methods for detecting CCR2 receptors” (Washington University, priority 2016, dated 2024)", "key": {"CCR2 [1]": {"test_system": "CCR2", "experiment": "PET/CT imaging in LPS mouse lung injury model", "format": "in vivo", "conditions": "LPS-treated CCR2-deficient mice", "excerpt": "(§1) The Institutional Animal Care and Use Committee approved these studies. Wild type (n=77) and CCR2-deficient (CCR2^−/−, n=4) mice (C57BL6/J strain) were 8 to 12 weeks of age, of both sexes and approximately 25 g in weight. Mice were used for radiotracer stability studies (n=3) and lung injury studies that included: immunostaining for CCR2 (n=6), in vivo immune cell peptide binding (n=18), lung water weight measurements (n=6), in vivo biodistribution (n=12) and PET/CT imaging (n=36). For the lung injury studies, mice were not treated (naive, n=8), administered intratracheal vehicle control, phosphate buffered saline (PBS, 1 μL/g, n=26) or lipopolysaccharide (LPS, endotoxin, E. coli strain 055:B5, Sigma-Aldrich, St. Louis, MO), at a dose of 2.5 μg/g (n=44), “high” dose, 10 μg/g (n=3), or “low” dose, 0.5 μg/g (n=3) LPS. All CCR2-deficient mice were administered an LPS dose of 2.5 μg/g. Lung water was quantified using wet-to-dry weight ratios in PBS- or intermediate dose LPS-treated mice (n=3/group). Lungs were resected and weighted immediately, then compared to weights obtained after drying at 65° C. for 48 h.\nTime-activity curves were calculated from the ROIs from PET images obtained in a subgroup (n=3/group) of the PBS- and LPS-treated mice undergoing imaging at 24 h. […]"}, "PC3 prostate cancer": {"test_system": "PC3 prostate cancer", "experiment": "PET in mouse PC3 prostate cancer model", "conditions": "in vivo"}, "CCR2 [2]": {"molecular_target": "T1, CCR2 (Mus musculus, UniProt P51683)"}, "CCR2 [3]": {"molecular_target": "T1, CCR2", "experiment": "PET/CT imaging in LPS mouse lung injury model", "format": "in vivo", "design": "tissue The Jackson Laboratories; host or cells: C57BL/6 mice, lung and aortic arch in vivo (CCR2+ monocytes/macrophages)", "excerpt": "as §1\nTime-activity curves were calculated from the ROIs from PET images obtained in a subgroup (n=3/group) of the PBS- and LPS-treated mice undergoing imaging at 24 h. […] PET/CT images of naive (n=4) and PBS-treated (n=5) mice at 24 h were used as controls for all LPS-treatment studies performed at 24 h including ECL1i blocking studies (n=4), CCR2^−/− mice (n=4), low- (n=3) and high-dose LPS (n=3), as well as images obtained at 48 (n=3) and 144 (n=3) h post-LPS.\nWild-type mice in the C57B/6J background and CCR2-deficient mice (CCR2^−/−, No. 004999) were obtained from the Jackson Labs (Bar Harbor, ME). CCR2-deficient mice were backcrossed into the C57B/6J background. Mice, 8 to 12 weeks of age, of both sexes and weighing approximately 25 g, were used. Mice were anesthetized by administering a combination of ketamine HCl, 100 mg/kg and xylazine HCl. 15 mg/kg, by intraperitoneal injection. To deliver PBS control vehicle or LPS into the lung, the trachea was surgically isolated and cannulated with a 22 gauge, 1″ catheter (Exel Safelet, ThermoFisher Scientific, Waltham, MA). Mice were administered phosphate buffered saline (PBS, 1 μL/g) or lipopolysaccharide at a dose of 2.5 μL/g (LPS, endotoxin, E. coli strain 055:B5, Sigma-Aldrich, St. Louis, MO). Other mice were administered an LPS “high” dose, 10 μL/g, or “low” dose, 0.5 μg/g, using stock solutions of LPS created to inject a volume of 1 L/g. Intratracheal injection was over approximately 2 seconds, after which mice were kept warm and allowed to recover."}, "CCR2 [4]": {"molecular_target": "T1, CCR2", "experiment": "PET in mouse apoE^−/− atherosclerosis model", "design": "tissue The Jackson Laboratories; host or cells: C57BL/6 mice, lung and aortic arch in vivo (CCR2+ monocytes/macrophages)", "conditions": "in vivo"}, "CCR2 [5]": {"molecular_target": "CCR2 (Homo sapiens, UniProt P41597)", "experiment": "Autoradiography on human lung tissue sections", "format": "binding", "design": "Fixed human lung tissue sections; from tissue; host or cells: human lung (COPD explants and donor lungs), fixed paraffin sections", "protocol": "Fixed human lung tissue sections that were deparaffinized and hydrated in PBS were incubated with ^64Cu-DOTA-ECL1i for 5 min (n=4 donor, n=6 COPD). […] Slides were washed 30 times with water then placed in an instant imager (Packard, Meriden, CT) for 30 minutes."}}, "note": "Values joined by “and” are separate entries in the source; they are usually repeats but may differ in a detail not shown here. Identical values can stand only once. Like-named read-outs stand apart in the source and are kept apart here. Part of at least one peptide drawing is inferred or uncertain, most often the ends.", "data": [{"smiles": "CC(C)C[C@@H](N)C(=O)NCC(=O)N[C@@H](C(=O)N[C@H](Cc1ccccc1)C(=O)N[C@H](CC(C)C)C(=O)N[C@H](CCCCN)C(=O)N[C@H](CSC1CC(=O)N(CCNC(=O)CN2CCN(CC(=O)O)CCN(CC(=O)O)CCN(CC(=O)O)CC2)C1=O)C(=O)O)[C@H](C)O", "note": "(single isomer, unassigned) [^64Cu-DOTA-ECL1i, metal not drawn]", "values": [{"measurement": "lung uptake (PET), mean % ID/g", "setting": "CCR2 [1]", "value": "0.39 % ID/g and 0.39±0.04 % ID/g"}, {"measurement": "detection of tumor", "setting": "PC3 prostate cancer", "value": "sensitive and specific detection of tumor cells"}, {"measurement": "graft/native lung uptake ratio", "setting": "CCR2 [2]; 1 hour after transplantation into wild type hosts, co-injected non-radiolabeled ECL1i (blocking)", "value": "1.17±0.36"}, {"measurement": "graft/native lung uptake ratio", "setting": "CCR2 [2]; 1 hour after transplantation, B6 wild type→B6 wild type", "value": "3.71±0.44"}, {"measurement": "graft/native lung uptake ratio", "setting": "CCR2 [2]; 4 hours after transplantation, B6 wild type→B6 wild type, peptide tracer", "value": "4.13±0.32"}, {"measurement": "graft/native lung uptake ratio", "setting": "CCR2 [2]; 24 hours after transplantation, B6 wild type→B6 wild type, peptide tracer", "value": "3.73±0.45"}, {"measurement": "uptake in grafts in CCR2-deficient recipients relative to wild type hosts", "setting": "CCR2 [2]; B6 wild type lungs into CCR2-deficient recipients, 1 hour", "value": 40, "unit": "%"}, {"measurement": "PET signal in donor lung relative to native lung", "setting": "CCR2 [2]; WT to WT, injected 1 h post transplantation, 0-60 min dynamic PET", "value": "~3", "unit": "times"}, {"measurement": "share of accumulation in the graft due to CCR2-mediated uptake", "setting": "CCR2 [2]; native CCR2-deficient lung taken as non-specific background", "value": "more than 70%"}, {"measurement": "tracer uptake in the lungs of naïve mice", "setting": "CCR2 [2]; naïve mice", "value": "minimal tracer uptake in the lungs"}, {"measurement": "decreased uptake in the donor lung", "setting": "CCR2 [2]; wild type B6→wild type B6, at 24 hours", "value": 63, "unit": "%"}, {"measurement": "PET signal in transplanted left lung", "setting": "CCR2 [2]; wild type left lung into wild type mice", "value": "intense signal in the left lung"}, {"measurement": "PET signal in transplanted lung", "setting": "CCR2 [2]; wild type lung transplanted into a CCR2^−/− mouse", "value": "minimal PET signal"}, {"measurement": "lung uptake (PET), mean % ID/g", "setting": "CCR2 [3]; LPS-treated mice co-injected with excess non-radioactive ECL1i (blocked)", "value": "0.63 % ID/g and 0.63±0.15 % ID/g"}, {"measurement": "lung uptake (PET), mean % ID/g", "setting": "CCR2 [3]; injected and imaged 48 h post-LPS", "value": "1.04±0.17", "unit": "% ID/g"}, {"measurement": "lung uptake (PET), mean % ID/g", "setting": "CCR2 [3]; injected and imaged 144 h post-LPS", "value": "1.29±0.32", "unit": "% ID/g"}, {"measurement": "lung uptake (PET), mean % ID/g", "setting": "CCR2 [3]; low dose LPS, 24 h", "value": "1.82±0.17", "unit": "% ID/g"}, {"measurement": "time of peak lung uptake post-LPS", "setting": "CCR2 [3]; mouse, in vivo", "value": 24, "unit": "h"}, {"measurement": "lung uptake (PET), mean % ID/g", "setting": "CCR2 [3]; naive mice", "value": 0.39, "unit": "% ID/g"}, {"measurement": "lung uptake (PET), mean % ID/g", "setting": "CCR2 [3]; wild type mice, 24 h after intratracheal LPS (2.5 μg/g)", "value": "4.43 % ID/g and 4.43±1.44 % ID/g"}, {"measurement": "lung uptake (PET), mean % ID/g", "setting": "CCR2 [3]; wild type mice, 24 h after intratracheal PBS (saline control group)", "value": "0.99 % ID/g and 0.99±0.29 % ID/g"}, {"measurement": "detection of atherosclerotic plaque", "setting": "CCR2 [4]", "value": "clearly showed the detection of plaque at aortic arch"}, {"measurement": "effect of competition with non-labeled ECL1i on autoradiographic signal", "setting": "CCR2 [5]; COPD samples with high levels of CCR2^+ cells, n=6", "value": "diminished the level of ^64Cu-DOTA-ECL1i binding"}, {"measurement": "binding in COPD samples compared to normal donor", "setting": "CCR2 [5]; lung sections on slides", "value": "marked increased binding"}]}]}
